Broadly, the EC50 is the midpoint of the concentration-response curve.

Molecules are shown by their SMILES. Hit rate of the full screen: of about 2,200 compounds, about 15 (0.7%) were called active.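 The calls were made as follows: active = fitted half-maximal concentration for loss of luminescence signal no more than a set limit of log units above the top tested concentration; inconclusive = flat fit with 30 to 70% signal loss, or invalid fit; inactive = half-maximal concentration above that set limit.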 Some of the results follow.

This assay can be described thus: inhibitors of ADP-Glo detection reagents, dose response, artefact control for GSK3beta inhibitor project, biochemical, luminescence, cell-free, homogeneous (AID 434947). The note with it: 5 uM ADP.
Consider `CC(=O)N1CCc2c(sc(NC(=O)C3COc4ccccc4O3)c2C(N)=O)C1` (configuration not stated), for which the EC50 was inactive: > 30 µM.

Turning to `Cc1ccnc(SCCn2c(N3CCOCC3)nc3c2c(=O)[nH]c(=O)n3C)n1`, the EC50 is inactive: > 30 µM. As for `Nc1nc(NCc2ccco2)nc(Nc2cccc(F)c2)c1[N+](=O)[O-]`, the figure is inactive: > 30 µM; as for `Cn1nc2c3ccccc3n(Cc3ccc(F)cc3)c2nc1=S`, inactive: > 30 µM. As for `O=C(Nc1ncc(Cc2ccccc2)s1)C1CCCO1` (configuration not stated), the EC50 was inactive: > 30 µM. As for `Oc1cccc(Nc2nc(-c3ccccc3)nc3ccccc23)c1`, the figure is inactive: > 30 µM; as for `CC(C(=O)NC1CCCCCC1)n1cc([N+](=O)[O-])cn1` (configuration not stated), inactive: > 30 µM.

As for `O=C1CC(SC(=Nc2ccccc2)Nc2ccccc2)C(=O)N1c1cccc2ccccc12` (configuration not stated), the EC50 was inactive: > 30 µM. As for `CNc1nc2c(N)ncnc2n1[C@H]1O[C@@H](CO)[C@H](O)[C@@H]1O`, the figure is inactive: > 30 µM; as for `COc1ccc2nc(C)cc(Nc3ccc(N4CCN(C)CC4)cc3)c2c1`, inactive: > 30 µM. Take `COc1cccc(C(CC(=O)NCc2ccco2)NS(=O)(=O)c2ccc(C)cc2)c1OC` (configuration not stated): the EC50 is inactive: > 30 µM. `CCN1CCN(c2ccc(S(=O)(=O)N3CCOCC3)cc2NC(=O)c2ccc(Cl)cc2Cl)CC1`: the EC50 is inactive: > 30 µM. Consider `Cc1ccc(Sc2ccc(/C=N/O)cc2[N+](=O)[O-])cc1`, for which the EC50 is inactive: > 30 µM. Consider `N#Cc1c(-c2ccccc2)nc(SCC(=O)N(c2ccccc2)c2ccccc2)[nH]c1=O`, for which the EC50 is inactive: > 30 µM. As to `O=C(CCc1ccccc1)Nc1ccc2c(c1)OCCO2`, the EC50 is inactive: > 30 µM.

In the case of `COc1ccc(CCN(C)C(=O)c2ccc(S(=O)(=O)Nc3ccccc3C)cc2)cc1OC`, the EC50 is inactive: > 30 µM. To `c1ccc(CSc2ccc3nnc(-c4cccnc4)n3n2)cc1` belongs inactive: > 30 µM; to `Cc1cn(C2OC(COC(=O)c3ccccc3)C(O)C2O)c(=O)[nH]c1=O` (configuration not stated), inactive: > 30 µM; to `COc1ccc(-c2noc(CSc3nnc(-c4ccccc4)n3C)n2)cc1`, inactive: > 30 µM. As for `CCOC(=O)c1c(-c2ccccc2)oc2ccc(OCC(=O)NNC(=O)CCCC(=O)O)cc12`, the figure is inactive: > 30 µM; as for `CCOC(=O)C1=C(CN2CCSCC2)NC(=O)NC1c1cc(C)ccc1C` (configuration not stated), inactive: > 30 µM. As for `CSc1nc(NCCCN(C)C)c2c3c(sc2n1)CN(C)CC3`, the EC50 was inactive: > 30 µM. In the case of `c1cncc(-c2nc(NCCCn3ccnc3)c3ccccc3n2)c1`, the EC50 is inactive: > 30 µM.

As to `Cc1c(C#N)c(O)[nH]c(=O)c1N=Nc1ccc(Br)cc1C(=O)O`, the EC50 is inactive: > 30 µM. Consider `CC1(C)Oc2ccc(C(=O)N3CCOCC3)cc2N(CC(=O)N2CCOCC2)C1=O`, for which the EC50 is inactive: > 30 µM. In the case of `CN1CCc2c(sc3c2c(=O)n(-c2ccccc2)c2nnc(SCc4ccc(Cl)cc4)n32)C1`, the EC50 is inactive: > 30 µM. For `CCOC(=O)c1cnc2ccc(OC)cc2c1NCCc1ccc(OC)c(OC)c1`, the EC50 was inactive: > 30 µM. As for `COCCN=C1Sc2nc3c(C)cccc3cc2CN1Cc1ccco1`, the figure is inactive: > 30 µM. For `COC(=O)c1sc(=S)n(Cc2ccccc2)c1C`, the EC50 is inactive: > 30 µM. To `N/C(Cc1nc2ccccc2s1)=N\O` belongs inactive: > 30 µM; to `CCOc1cc(C2Nc3ccccc3NC3=C2C(=O)CC(C)(C)C3)ccc1O` (configuration not stated), inactive: > 30 µM. With `CSc1nc2ncc3c(n2n1)CC1c2ccccc2CCN1C3=O` (configuration not stated), the EC50 was inactive: > 30 µM. As for `Cc1cc(C)n(S(=O)(=O)c2ccc(C)c(C)c2)n1`, the figure is inactive: > 30 µM. As for `O=C(c1cccnc1)C1CCCN(Cc2nc(Cc3ccccc3)no2)C1` (configuration not stated), the figure is inactive: > 30 µM; as for `Cn1nnc2sc3c(c2c1=O)CCCC3`, inactive: > 30 µM; as for `C=CCN1C(=O)C(Cc2ccc(Br)cc2)S/C1=N\N=C\c1ccco1` (configuration not stated), inactive: > 30 µM. Consider `COC(=O)c1cccc(Nc2nc(-c3ccncc3)nc3ccccc23)c1`, for which the EC50 was inactive: > 30 µM. In the case of `Clc1ccccc1CSc1nnc(-c2ccncc2)o1`, the EC50 is inactive: > 30 µM.

For `CCCOC1CCCN(Cc2cn(C)nc2-c2ccccc2F)C1` (configuration not stated), the EC50 was inactive: > 30 µM. Consider `CCCCC(=O)Nc1ccc(C(=O)NNC(=O)CCCOc2ccc(Cl)cc2Cl)cc1`, for which the EC50 was inactive: > 30 µM.

Consider `COCCn1c(SCC(=O)Nc2ccc(S(N)(=O)=O)cc2)nc2ccccc21`, for which the EC50 was inactive: > 30 µM. Turning to `Nc1nc(NC2CCCCC2)nc(NCCO)c1[N+](=O)[O-]`, the EC50 was inactive: > 30 µM. To `Cc1ccccc1-n1nnc2c(=O)oc3ccccc3c21` belongs inactive: > 30 µM; to `COc1ccccc1/C=C/C=C1\Oc2c(ccc(O)c2CN2CCN(CCO)CC2)C1=O`, inactive: > 30 µM. Regarding `CCc1nnc(NC(=O)c2cc(-c3ccccc3)nn2-c2ccccc2)s1`, the EC50 is inactive: > 30 µM. On to `Nc1nc(NCCO)nc(NCC2CCCO2)c1[N+](=O)[O-]` (configuration not stated), for which the EC50 is inactive: > 30 µM.

As for `CSc1nc(NCC(C)O)c2c3c(sc2n1)CN(C)CC3` (configuration not stated), the EC50 was inactive: > 30 µM. With `CCCCCCNC(=O)C(C(=O)OCC)C1CCCCC1` (configuration not stated), the EC50 was inactive: > 30 µM. In the case of `CCCCc1cc(=O)oc2cc(C)cc(OCc3nn[nH]n3)c12`, the EC50 is inactive: > 30 µM. With `O=C(Nc1ccc(O)c2c(=O)cc(-c3ccccc3Cl)oc12)c1ccc(F)cc1`, the EC50 was inactive: > 30 µM. As for `Cc1cccc(Nc2nc(NCC3CCCO3)nc(N)c2[N+](=O)[O-])c1` (configuration not stated), the figure is inactive: > 30 µM; as for `Cc1c(CCOC(=O)CC23CC4CC(CC(C4)C2)C3)sc[n+]1CC(=O)c1ccc(Br)cc1`, inactive: > 30 µM; as for `CN(C)c1nc(N)c([N+](=O)[O-])c(NCCO)n1`, inactive: > 30 µM. Take `O=C(CN1C(=O)CCC1=O)Nc1cccc(NC(=O)CN2C(=O)CCC2=O)c1`: the EC50 was inactive: > 30 µM.

As to `O=C(Cc1ccc(Cl)cc1)Nc1ncc([N+](=O)[O-])s1`, the EC50 is inactive: > 30 µM.

In the case of `COc1cc(C(c2nnnn2C(C)(C)C)N2CCN(c3nc4ccccc4s3)CC2)ccc1O` (configuration not stated), the EC50 is inactive: > 30 µM. As for `COc1cccc2cc(C(=O)NCc3ccccc3Br)c(=O)oc12`, the EC50 was inactive: > 30 µM. For the compound `COc1ccc(CCNc2c(C=O)c(=O)[nH]c3ccccc23)cc1OC`, the EC50 was inactive: > 30 µM. On to `COC(=O)c1nnn(-c2nonc2N)c1CSc1nnc(C)s1`, for which the EC50 was inactive: > 30 µM.

In the case of `Cc1c(Cl)cccc1NC(=S)N(C)CCC#N`, the EC50 was inactive: > 30 µM. `O=C(O)CCn1cc(C(=O)O)c(-c2ccccc2)n1`: the EC50 is inactive: > 30 µM. For the compound `Cc1ccc(-c2nn(-c3ccccc3)cc2/C=N/n2c(-c3cccs3)n[nH]c2=S)cc1`, the EC50 is inactive: > 30 µM. Turning to `CCOC(=O)c1c(S(=O)(=O)NCC(=O)NCc2ccc(C)cc2)c(C)n(C)c1C`, the EC50 was inactive: > 30 µM. Turning to `CCCn1nc(NC(=O)C2CCCO2)c2cc3ccc(C)cc3nc21` (configuration not stated), the EC50 was inactive: > 30 µM. Turning to `Cc1ccc2c(c1)NC(=O)c1cc([N+](=O)[O-])ccc1O2`, the EC50 was inactive: > 30 µM. As for `CC(=O)c1ccc(NC(=O)CN2C(=O)CCC2=O)cc1`, the figure is inactive: > 30 µM. With `Cc1ccc(S(=O)(=O)NC(=NC(C)C(=O)O)c2ccccc2)cc1` (configuration not stated), the EC50 was inactive: > 10 µM.

On to `CCc1nc2oc3cc(OC)ccc3c(=O)c2c(=O)n1Cc1ccccc1`, for which the EC50 was inactive: > 30 µM. Turning to `Clc1ccc2[nH]c3c(c2c1)CCc1cn[nH]c1-3`, the EC50 is inactive: > 30 µM.

Take `CCOC(=O)c1cnc2ccc(OC)cc2c1Nc1ccc(N2CCN(C)CC2)cc1`: the EC50 was inactive: > 30 µM. Turning to `COc1ccccc1N1CCN(C(=O)Cn2nnc(-c3ccncc3)n2)CC1`, the EC50 is inactive: > 30 µM. Turning to `CCOC(=O)c1cnc2ccc(C)cc2c1Nc1ccc(N2CCOCC2)cc1`, the EC50 is inactive: > 30 µM. Consider `O=C(c1ccncc1)N1CCN(C(=O)c2ccco2)CC1`, for which the EC50 was inactive: > 30 µM. In the case of `Oc1ccc2oc3c(c2c1)CCCC3`, the EC50 is inactive: > 30 µM. Turning to `O/N=C/c1ccc(OCc2ccccc2)c(Cl)c1`, the EC50 is inactive: > 30 µM.

As for `CC[n+]1c(/C=C/N(C)c2ccccc2)oc2ccc(Cl)cc21`, the EC50 was inactive: > 30 µM.

`COc1ccc2cc(C(=O)CS(=O)(=O)c3ccccc3)c(=O)oc2c1`: the EC50 is inactive: > 30 µM.

Consider `CCN(CCNC(=O)CN(C)S(=O)(=O)c1cccc2nsnc12)c1ccccc1`, for which the EC50 was inactive: > 30 µM.

On to `CCOC(=O)c1cnc2c(C)cccc2c1Nc1ccc(N2CCOCC2)cc1`, for which the EC50 is inactive: > 30 µM. Turning to `CCOCCOC(=O)c1ccc(-n2cnc(C)n2)nc1`, the EC50 was inactive: > 30 µM.

With `COc1cc(/C=N/Nc2ccc([N+](=O)[O-])cn2)cc(OC)c1O`, the EC50 is inactive: > 30 µM.

As to `CNC(=O)c1ccsc1NC(=O)C1CCN(S(=O)(=O)c2ccc(Cl)s2)CC1`, the EC50 was inactive: > 30 µM. As for `O=C(Nc1ccnc(-c2cccnc2)n1)c1ccc(Cl)c(Cl)c1`, the figure is inactive: > 30 µM; as for `O=C(NCc1ccco1)C(=O)c1cn(CC(=O)N2CCCC2)c2ccccc12`, inactive: > 30 µM; as for `CNc1nc(N)c([N+](=O)[O-])c(NCCO)n1`, inactive: > 30 µM. With `CCOc1ccc(C2=CSC3=NCCN23)cc1[N+](=O)[O-]`, the EC50 is inactive: > 30 µM. To `O=C(O)CC1S/C(=N/N=C/c2ccc(-c3ccc(Cl)c([N+](=O)[O-])c3)o2)NC1=O` (configuration not stated) belongs inactive: > 30 µM; to `CC(=O)N1CCc2c(sc(NC(=O)C3CCCCC3)c2C(N)=O)C1`, inactive: > 30 µM; to `CC1(C)CC(=O)C=C(Nc2ccccc2F)C1`, inactive: > 30 µM.

As to `CC1=C(C(=O)N2CCCCC2)C(c2cccs2)C2=C(CCCC2=O)N1` (configuration not stated), the EC50 was inactive: > 30 µM. Take `Cc1ccc2c(c1)C1CN(C)CCC1N2C(=S)Nc1ccc(Cl)cc1Cl` (configuration not stated): the EC50 is inactive: > 30 µM.

As to `COc1cccc2cc(C(=O)CS(=O)(=O)c3ccc(C(C)(C)C)cc3)c(=O)oc12`, the EC50 is inactive: > 30 µM.

Source of the values: PubChem BioAssay AID434947 (Broad Institute, 2010).
